Primary screen of a compound library

The values are deposited in ChEMBL (CHEMBL3988442, “University of Dundee, Small-Polar-MMV Screening Library” (2021)).

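Phenotypic screen: M. tuberculosis growth, glucose 7H9 medium, 3 days; the read-out is not stated. Tested at 50 µM. The record gives no direction; compounds that gave an IC50 in retests scored well above the rest, so higher reads as more growth inhibition. About 69,000 compounds were tested under these conditions; 1.1% (about 760) showed 50% or more at least once.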

Each number is a percent effect as filed.
The controls that fix the scale are not given in the record; negative values are as filed.
This is an unselected part of the compounds tested.
Two or more numbers in one place are separate tests of the same structure; such repeats can differ widely.

* CN(C)C(=O)Cc1ccccc1NCc1cc(C#N)ccc1F | 5.721%
* CO[C@H]1C[C@@H](O)C12CCN(C(=O)NCc1ccco1)CC2 | -31.04%
* CN(CCCc1cnn(C)c1)C(=O)Nc1cccc(C#N)c1 | -32.55%
* COc1cc(CCC(=O)NC2CCCN(C)C2)ccc1OCC(F)(F)F (centres unmarked) | 27.72%
* Cc1noc(C)c1C(=O)N(C)Cc1nc(-c2ccccn2)no1 | 1.304%
* COCCNC(=O)Nc1cccc2c1CCN(S(C)(=O)=O)C2 | 11.95%
* COc1ccc(C(=O)CNC(=O)c2nc(Cl)sc2C(C)C)cc1 | -14.42% and 5.547%
* O=C(c1cc2c(s1)CCC2)N1CCCC1c1noc(C2CC2)n1 (centres unmarked) | -15.01% and 7.296%
* COc1c(CNCCc2c[nH]c3ccccc23)c(C)nn1C | -20.48%
* CC(C)c1noc(CN(C)C(=O)c2ccccc2-c2nc[nH]n2)n1 | -33.75%
* Fc1ccc(CN2CCCC2c2cncc(-n3ccnc3)n2)cc1 (centres unmarked) | -4.475%
* CC(=O)c1cccc(OCCCC(=O)N(C)CCC(F)(F)F)c1 | 3.105% and 24.93%
* CC(=O)NCCNC(=O)NCC1Cc2ccccc2O1 (centres unmarked) | 7.255%
* CC(C1CCN(Cc2c(Cl)ccc(O)c2Cl)CC1)N1CCN(C)CC1 (centres unmarked) | 9.987% and 3.426%
* CN1CCC2(CC1)CC(NC(=O)c1csnn1)c1ccccc1O2.O=C(O)C(F)(F)F (centres unmarked) | 47.7%
* CCC(OC)C(=O)NCc1cc2n(n1)CCCN(C1CCCCC1)C2 (centres unmarked) | -18.26%
* Cc1cnc(NC2CCN(CC(=O)Nc3ccccc3)CC2)nc1C | 5.899%
* CC(C)c1n[nH]c(C2CN(CC(=O)N(C)Cc3ccco3)CCO2)n1 (centres unmarked) | -31.33%
* CCc1nnc2n1CCN(C(C(=O)NC1CC1)c1ccc(F)cc1)C2 (centres unmarked) | 8.726% and 4.113%
* O=C(c1cc(Cl)c2c(c1)OCCO2)N1CCCC(n2cncn2)C1 (centres unmarked) | 16.27%
* COc1cccc2c1OCC(CNC(=O)Cc1csc(C(C)=O)c1)C2 (centres unmarked) | -5.751% and 3.2%
* Fc1cnc(N2CCOC3(CCN(Cc4cccs4)CC3)C2)nc1.O=C(O)C(F)(F)F.O=C(O)C(F)(F)F | 9.629%
* O=C(CCc1cccs1)N1CCC(N2CCNC2=O)CC1 | 10.12%
* O=C(O)C(F)(F)F.O=C(O)C(F)(F)F.[H][C@@]12C[C@@H](Oc3ccc(C)cc3)CN1CCN(C(=O)c1cccnc1)C2 | -8.367%
* COc1ccc(OC)c(CN(C)c2nc3c(cnn3C)c(=O)[nH]2)c1 | 4.308%
* CN(C)CCNC(=O)C1Cc2nc(-c3ccsc3)sc2N1CC1CC1.O=C(O)C(F)(F)F (centres unmarked) | 34.32%
* O=S(=O)(c1ccccc1)N1CC[C@]2(C[C@@H](OCC3CC3)CO2)C1 | -10.24%
* Cc1cc(C(=O)N2CC[C@@H](O)[C@@H]2Cc2ccccc2)no1 | -7.206%
* CC(Cn1cncn1)Nc1ccc(-c2nccn2C)nn1 (centres unmarked) | 29.34%
* CN(C)C(=O)C1CCN(Cc2csc(C(C)(C)C)n2)CC1 | -35.25%
* Cc1nc(C)n(C2CCCN(C(=O)c3c(C)nn4cccnc34)C2)n1 (centres unmarked) | 2.864%
* Cc1noc(C)c1CN(C)C(=O)NC1CCOCC1 | 11.71%
* [H][C@@]12CCN(C(=O)N(C)C)[C@]1([H])CCC(=O)N2CCOC | -7.494% and -3.798%
* CN(C)C(=O)CCC(=O)N1CCC2(CC1)COC2 | -27.06%
* O=C(NCC1(Sc2ccccc2)CC1)c1c[nH]nn1 | 20.19%
* Cc1c(NC(=O)NC2CCOCC2)cccc1C(=O)N1CCCC1 | -5.019% and -0.4172%
* O=S(=O)(NCc1ccccc1)N(Cc1ccccn1)CC1CCCO1 (centres unmarked) | -9.069%
* Cc1nn(C(C)(C)C)c(=O)n1CC(=O)NCC(F)(F)F | -1.944%
* CCc1csc(C2CCCN(C(=O)c3ccco3)C2)n1 (centres unmarked) | -5.53%
* N#Cc1ccccc1CN(CC(N)=O)C1CCCC1 | -0.2796%
* [H][C@@]12CN(Cc3cnn(C)c3)C[C@]1([H])OCCN2CC1CCCC1 | -18.6% and 4.694%
* COCC(=O)NCC1Cn2nnc(-c3ccoc3)c2CO1 (centres unmarked) | 6.8% and -7.507%
* Cn1nc(Cn2ccnc2)c2c1CN(C(=O)c1ccoc1)C2.O=C(O)C(F)(F)F | -15.41%
* CCc1nccn1C1CCCN(C(=O)c2ccoc2C)C1 (centres unmarked) | 7.808%
* CN1CC2(CCCN(Cc3cccc(CCN)c3)C2)OC1=O (centres unmarked) | 0.5624%
* CCNc1cc2c(nn1)CCN(C(=O)c1ccnc(-n3ccnc3)c1)C2 | -3.345%
* COC(=O)Cn1c(C)cc(=O)n2nc(-c3cccs3)nc12 | -19.32%
* Cc1nnc(CN2CCCC2c2ccc(Cl)c(Cl)c2)o1 (centres unmarked) | 6.82% and 3.068%
* CN(C)S(=O)(=O)N1CCC(c2c(C(N)=O)sc3ccccc23)C1 (centres unmarked) | 6.478%
* Cc1ccc(C)c(CC(=O)Nc2cnccc2SCCCO)c1 | 0.8779% and 12.05%
* CN(C)S(=O)(=O)N1CCCC(c2cccc(Cc3ccc(F)cc3)n2)C1 (centres unmarked) | -0.4793%
* CC(C)OCCCNC(=O)N(C)C(C)c1ccc(-n2cncn2)cc1 (centres unmarked) | 33.32%
* [H][C@@]12CN(C(=O)c3ccccc3C)C[C@]1([H])[C@H]2CN(C)CCc1ccccn1 | -22.99%

For reference, 5 entries once more:

| SMILES | Percent Effect |
|---|---|
| `O=S(=O)(c1ccccc1)N1CC[C@]2(C[C@@H](OCC3CC3)CO2)C1` | -10.24 |
| `CN(C)S(=O)(=O)N1CCCC(c2cccc(Cc3ccc(F)cc3)n2)C1` (centres unmarked) | -0.4793 |
| `CCc1nccn1C1CCCN(C(=O)c2ccoc2C)C1` (centres unmarked) | 7.808 |
| `Cc1cc(C(=O)N2CC[C@@H](O)[C@@H]2Cc2ccccc2)no1` | -7.206 |
| `[H][C@@]12CN(Cc3cnn(C)c3)C[C@]1([H])OCCN2CC1CCCC1` | -18.6 and 4.694 |